Reference: PubChem BioAssay AID1259308 (NCATS, 2017)

Test: 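Knock-downs that increase output of a recombinant reporter protein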 (primary screen)
Cell system: human HEK293 embryonic kidney cells stably expressing firefly luciferase (HEK-CMV-Luc2-Hygro)
Knock-down reagent: single siRNA against human genes, 0.8 pmol siRNA per well
Time to read-out: 72 h
Measured: 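Reporter luminescence and viable-cell signal on separate replicate plates, given as percent of non-targeting control and median/MAD z-scores, plus per-cell luciferase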
Reading the numbers: total luciferase, z-score and total luciferase, % of control: higher = more reporter protein produced
Rule for the call: 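An siRNA counts as active if its total luciferase robust z-score exceeds 3; genes with two or more such siRNAs out of three were retested with fresh siRNAs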
Calls: active = raised luciferase; inactive = no rise
Shown is one part, drawn at random, of about 59,000 reagents tested. About 1,510 of them (2.6%) count as active. 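Calls use total luciferase alone and ignore viability, so some active siRNAs may act by altering cell number.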 Entries without a mark were called inactive. The numbers tell different reagents against one gene apart. Further read-outs or replicates are left out here.

{"gene symbol": "LINC02551", "reagent": 1, "total luciferase, z-score": 0.407, "total luciferase, % of control": 90}
{"gene symbol": "LINC02551", "reagent": 2, "total luciferase, z-score": -0.937, "total luciferase, % of control": 63.2}
{"gene symbol": "LINC02551", "reagent": 3, "total luciferase, z-score": 1.49, "total luciferase, % of control": 111}
{"gene symbol": "TOX", "reagent": 1, "total luciferase, z-score": -1.2, "total luciferase, % of control": 58}
{"gene symbol": "TOX", "reagent": 2, "total luciferase, z-score": 0.459, "total luciferase, % of control": 91}
{"gene symbol": "TOX", "reagent": 3, "total luciferase, z-score": -1.29, "total luciferase, % of control": 56.3}
{"gene symbol": "MAPDA", "reagent": 1, "total luciferase, z-score": 1.24, "total luciferase, % of control": 106}
{"gene symbol": "MAPDA", "reagent": 2, "total luciferase, z-score": 0.496, "total luciferase, % of control": 91.8}
{"gene symbol": "MAPDA", "reagent": 3, "total luciferase, z-score": -1.1, "total luciferase, % of control": 59.9}
{"gene symbol": "DUSP9", "reagent": 1, "total luciferase, z-score": 1.28, "total luciferase, % of control": 107}
{"gene symbol": "DUSP9", "reagent": 2, "total luciferase, z-score": "3.67 (active)", "total luciferase, % of control": 155}
{"gene symbol": "DUSP9", "reagent": 3, "total luciferase, z-score": -1.51, "total luciferase, % of control": 51.9}
